Percent effect of library compounds

From ChEMBL document CHEMBL3988442, “University of Dundee, Small-Polar-MMV Screening Library” (2021).

Values are the deposited “Percent Effect”, in %. How 0% and 100% were set is not recorded. Most values in the screen are low, and negative values occur. The compounds are a random part of those screened. Two or more numbers in one place are separate tests of the same structure; such repeats can differ widely.

Mtb cholesterol medium: 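Phenotypic screen: M. tuberculosis growth, cholesterol and DPPC medium, 4 days; the read-out is not stated. Concentration: 50 µM. The record gives no direction; compounds that gave an IC50 in retests scored well above the rest, so higher reads as more growth inhibition. Of about 69,000 compounds tested this way, about 370 (0.54%) reached 50% or more in at least one test.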
Mtb glucose medium: 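Whole-cell growth test on Mycobacterium tuberculosis, read after 3 days in glucose-containing 7H9 medium; the read-out is not stated. Concentration: 50 µM. Higher reads as more growth inhibition (inferred: compounds with an IC50 in retests scored well above the rest). Size under these conditions: about 69,000 compounds, about 760 of them at 50% or above in at least one test.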

| structure | Mtb cholesterol medium | Mtb glucose medium |
|---|---|---|
| `N#Cc1cc(CSCCN2CCOCC2)ccc1F` | 2.409 | -0.7236 |
| `CN(CCCc1cc(-c2ccc(F)cc2)n[nH]1)C(=O)CCn1cncn1` | -1.395 | 2.691 |
| `O=C(O)C(F)(F)F.O=C(O)C(F)(F)F.O=C(O)C(F)(F)F.c1coc(CN2CCOC3(COCCN(Cc4ccncc4)C3)C2)c1` (centres unmarked) | 4.378 | 2.033 and 10.57 |
| `CCN(CC)C(=O)[C@@H]1C[C@H](n2cc(-c3ccccn3)nn2)CN1` | 17.36 | 25.77 |
| `Cc1cnn(CC2CCCCN2Cc2ncc(C(C)(C)C)o2)c1` (centres unmarked) | -0.8796 | 7.695 |
| `O=C(O)C(F)(F)F.O=C(O)C(F)(F)F.[H][C@@]12CCCO[C@]1([H])[C@H](N(C)C)CN2Cc1ccc(C)o1` | -3.08 | -15.25 and -2.976 |
| `CCN(CC(=O)NC)S(=O)(=O)c1cnc2c(c1)c(C)nn2C` | 9.643 and -0.9478 | -11.57 |
| `CN1CC(C(=O)NCc2ccnc(-n3cccn3)c2)CC1=O` (centres unmarked) | -0.2986 | 17.42 |
| `Cc1ocnc1CNC(=O)Nc1ccc(N2CCOC(C)C2)cc1` (centres unmarked) | -8.564 | 14.92 |
| `Cc1nc(CN2Cc3nccn3CC(CN3CCOCC3)C2)cs1.O=C(O)C(F)(F)F.O=C(O)C(F)(F)F` (centres unmarked) | -7.827 | 9.155 and 0.7717 |
| `COCc1ccc(C(=O)NCCCNc2ccc(C(F)(F)F)cn2)cc1` | -12.9 | -7.192 |
| `CS(=O)(=O)CCCNC(=O)NC1CC(c2cccc(Cl)c2)C1` (centres unmarked) | -19.63 | 24.5 |
| `O=C(O)C(F)(F)F.O=C(O)C(F)(F)F.[H][C@@]12CN(Cc3cccc(F)c3)C[C@]1([H])CN(c1ncc(F)cn1)C2` | -2.678 | -4.697 and -16.55 |
| `Cc1noc(C2CCC3(CCN(C(=O)c4cnccn4)CC3)O2)n1` (centres unmarked) | -13.48 | -43.2 |
| `O=c1ccc(-n2ccnc2)nn1CCNS(=O)(=O)c1ccccc1Cl` | 16.64 | -3.732 and 6.711 |
| `CC(C)(O)CCc1ccc(C(=O)NCC2CCCOC2)cc1` (centres unmarked) | 22.38 | 10.15 |
| `CS(=O)(=O)N1CCC2(CC1)COC(COc1ccccn1)C2.O=C(O)C(F)(F)F` (centres unmarked) | -28.17 | 3.146 |
| `CCOc1ccccc1C(N)CC(C)C` (centres unmarked) | 4.347 | 6.224 and -2.08 |
| `CS(=O)(=O)N1CCC(c2nc3ccc(-c4cccc(F)c4)cn3n2)CC1` | 7.3 | 29.06 |
| `COCc1nc(C2CCN(Cc3ncc[nH]3)CC2)no1` | -19.11 | -2.549 |
| `c1csc(C(CNCc2cccc3c2OCO3)N2CCOCC2)c1` (centres unmarked) | -4.007 | 3.571 |
| `COc1cccc(-n2nnc(C(=O)N3CCOC(C)C3)c2C)c1` (centres unmarked) | -3.764 | -8.379 |
| `O[C@@H]1CN(Cc2cccnc2)C[C@H]1Oc1ccccc1` | -5.356 | -8.519 |
| `COc1ccc(OCCN(C)C(=O)c2ccc(OC)cc2O)cc1` | 1.426 | -4.189 |
| `Cc1cc(CNCc2c(C(C)C)nn(C)c2N2CCOCC2)no1` | -8.222 | -1.14 |
| `CCN(Cc1cccc2c1OCO2)C(=O)NCCOC` | 0.1245 | 7.617 |
| `CCN(Cc1noc(C)n1)C(=O)CC1C(=O)NCCN1CC(C)(C)C` (centres unmarked) | -4.446 | -11.03 |
| `CCCn1c(C)c(CC(=O)NC(C)(C)CO)c2c1CC(C)(C)CC2=O` | 0.08544 | -17.11 |
| `COCCCNC(=O)CN1CCOC(c2ccccc2)C1` (centres unmarked) | 6.513 | 15.76 |
| `CC(C)OCCCNC(=O)C1CC(=O)N(c2n[nH]c3cccc(F)c23)C1` (centres unmarked) | -6.265 | 11.69 |
| `CSc1ccc(S(=O)(=O)NC2CNC(=O)C2)cc1` (centres unmarked) | -23.11 | -7.739 |
| `CCOc1c(Cl)cccc1NCc1cc(C)on1` | -11.48 | 20.02 |
| `CCOc1ncccc1NC(=O)NCC(C)O` (centres unmarked) | 5.263 | 0.07109 |
| `CCCc1nc(N2CCSCC2)c2c(n1)c(C)nn2CC` | 12.07 | 16.93 and 15.11 |
| `Cc1nn(Cc2ccc(C(=O)NC3CCS(=O)(=O)C3)cc2)c(C)c1Br` (centres unmarked) | -2.894 | 4.162 |
| `O=C(c1ccc(S(=O)(=O)NCc2ccon2)cc1)N1CCCCCC1` | -17.72 | 4.714 |
| `Cc1cc(C)n(C2CN(CC(O)Cn3cccn3)C2)n1` (centres unmarked) | -16.23 | -11.74 and 8.334 |
| `Cc1ccccc1CN1CCN(C(=O)c2ccn(C(C)(C)C)c2)CC1` | 3.737 | 1.537 |
| `O=C(CN1CC(c2nc(Cc3ccccc3)no2)C1)NCC1CCCO1.O=C(O)C(=O)O` (centres unmarked) | -6.101 | -14.04 and -2.178 |
| `CCS(=O)(=O)NCC1Cn2nnc(-c3ccccc3)c2CO1` (centres unmarked) | 0.2032 and -3.186 | -37.88 |
| `CC(C(=O)NCCCN1CCN(c2ccccc2)CC1)n1cncn1` (centres unmarked) | -1.547 | 4.029 |
| `Cn1cccc1-c1cc(C(=O)N2CCCC2C(F)(F)F)[nH]n1` (centres unmarked) | 3.794 | 4.751 |
| `CC(O)CN1CCN(C(=O)c2ccc(Cn3cccc3)cc2)CC1` (centres unmarked) | -31.18 | -27.7 |
| `CNS(=O)(=O)CC(=O)NCc1cc2c(s1)CCCCC2` | 13.92 | 23.44 |
| `COc1ccc(N(Cc2ccco2)C(=O)COC(C)C)cc1F` | -33.22 | -9.99 |
| `CC(=O)NCCNC(=O)c1cnc2c(c1)nc(-c1ccccc1Cl)n2C` | -1.769 | 0.05814 and 6.415 |
| `CC(NC1(CNC(=O)C(C)(C)C#N)CCOCC1)c1ccccc1` (centres unmarked) | 6.662 | 2.348 |
| `CC(C)n1cc(N2CC(C(=O)N3CCCC3)CC2=O)cn1` (centres unmarked) | 12.76 | 9.467 and 0.9355 |
| `CNC(=O)C(C)CN(C)C(=O)Nc1ccc(Cl)cc1-n1cccc1` (centres unmarked) | 8.329 | 14.39 |
| `Cc1nc(CN2CCCC(Nc3ncnc4ccccc34)C2)no1` (centres unmarked) | 11.62 | -4.185 |
| `CC(C)(C)CN(CCC#N)C(=O)Nc1cccc(N2CCNC2=O)c1` | 12.22 | 11.32 and 0.4107 |
| `O=C(CNC(=O)c1ccccc1Cl)Nc1nccs1` | -28.15 | -8.372 and -2.576 |
| `COCc1ncn2c1CN(C(=O)c1ccco1)CC2` | -23.24 | -19.84 |
| `Cc1cccc(N2CCN(CCC(=O)NCc3nnc[nH]3)CC2)c1` | -9.244 | 22.22 |
| `CS(=O)(=O)c1cccc(C(N)c2ccccc2)c1` (centres unmarked) | 0.2779 | -1.193 |
| `COCCCNC(=O)C1CCN(CC2(O)CCC(C)CC2)CC1` (centres unmarked) | 11.37 | -3.579 and 26.81 |
| `Cc1occc1CNC(=O)C1(C)CCCN1C(=O)c1ccccc1` (centres unmarked) | 1.529 | -10.19 |
| `N[C@H]1CC[C@@H](CN2CCCn3nc(CNC(=O)C4CCC4)cc3C2)CC1` | 5.131 and -1.868 | 4.94 |
| `O=C(Cc1ccccc1)NC[C@H]1Cn2ccnc2CO1` | -23.25 | -10.32 and -6.849 |
| `Cc1nn(C)c(C)c1CN1CCCC(c2ccc(C(=O)O)cc2)C1` (centres unmarked) | -6.781 | 19.9 |
| `O=C1CN(C(=O)CC2c3ccccc3CCc3ccccc32)CCN1` | -3.574 | 0.6465 |
| `COc1cc(N2CCN(CC3CC3)c3nc(C)ccc3C2)ncn1` | -0.9794 | 22.15 |
| `COC1CCN(C(=O)CC2CCCC2)CC(=O)N(C)c2ccccc21` (centres unmarked) | -14.46 | 2.048 |
| `OCC1(CNC2CCc3cc4c(cc32)OCCO4)CC1` (centres unmarked) | -17.27 | 2.144 |
| `CSCC[C@H](NC(C)=O)C(=O)N(C)Cc1ccc(-n2cccn2)cc1` | -9.29 | -36.9 and -2.7 |
| `O=C(NCC1(Sc2ccccc2)CC1)c1ccc(=O)[nH]n1` | -1.763 | 15.17 |
| `CS(=O)(=O)N1CCC(N2CCCC2c2ccccn2)CC1` (centres unmarked) | -4.36 | 16.15 |
| `[H][C@]12CCN(C(=O)c3cc(C)oc3C)C[C@@]1([H])OCCN(c1ncccn1)C2` | -28.94 | -19.39 |
| `O=C(Cn1ccc2sccc2c1=O)NCCC1=CCCCC1` | -10.13 | 0.7526 |
| `O=C(c1cc2c([nH]c1=O)CCC2)N1CCCC1c1ccccc1` (centres unmarked) | 83.48 | 16.59 |
| `CSc1nccn1-c1cccc(C(=O)NCC2CC2)c1` | 27.52 | 33.67 |
| `CC(=O)N(Cc1noc(C)n1)C1CCN(Cc2ccc(C#N)cc2)C1` (centres unmarked) | 16.67 | 9.81 |
| `COc1cccc(CCC(=O)Nc2ccn(C)n2)c1OC` | 4.162 | 24.17 |
| `CCC1CCCCN1C(=O)c1ccc2[nH]nnc2c1` (centres unmarked) | 1.022 and 6.726 | 9.593 |
| `CCn1ncc2c1NC(=O)CC2c1cnc(-c2ccccn2)nc1` (centres unmarked) | 0.893 | 9.028 |
| `Cc1noc(C)c1C[S+]([O-])Cc1cn2cccc(C)c2n1` (centres unmarked) | 9.691 | 8.855 |

The first 8 entries again:

structure	Mtb cholesterol medium	Mtb glucose medium
N#Cc1cc(CSCCN2CCOCC2)ccc1F	2.409	-0.7236
CN(CCCc1cc(-c2ccc(F)cc2)n[nH]1)C(=O)CCn1cncn1	-1.395	2.691
O=C(O)C(F)(F)F.O=C(O)C(F)(F)F.O=C(O)C(F)(F)F.c1coc(CN2CCOC3(COCCN(Cc4ccncc4)C3)C2)c1 (centres unmarked)	4.378	2.033 and 10.57
CCN(CC)C(=O)[C@@H]1C[C@H](n2cc(-c3ccccn3)nn2)CN1	17.36	25.77
Cc1cnn(CC2CCCCN2Cc2ncc(C(C)(C)C)o2)c1 (centres unmarked)	-0.8796	7.695
O=C(O)C(F)(F)F.O=C(O)C(F)(F)F.[H][C@@]12CCCO[C@]1([H])[C@H](N(C)C)CN2Cc1ccc(C)o1	-3.08	-15.25 and -2.976
CCN(CC(=O)NC)S(=O)(=O)c1cnc2c(c1)c(C)nn2C	9.643 and -0.9478	-11.57
CN1CC(C(=O)NCc2ccnc(-n3cccn3)c2)CC1=O (centres unmarked)	-0.2986	17.42